Results are given in words; binding and its absence hold for the method and conditions named. Binding calls can cover weak binding; strength is not graded here.
Target: GLE5041 protein from L. enzymogenes C3 (bacterial two-hybrid bait, pBT) (L. enzymogenes C3)
Assay: two-hybrid

Row | binding | Substance
1 | binds | LuxR1 homolog from P. protegens CHA0 (bacterial two-hybrid, pTRG) (from UniProt A0A2C9EJX2)
2 | binds | PvdS homolog from P. chlororaphis YL-1 (bacterial two-hybrid, pTRG) (from UniProt A0ACD7QQA6)
3 | binds | PvdS homolog from P. protegens CHA0 (bacterial two-hybrid, pTRG) (from UniProt A0A2C9EQS3)
